# Reference: PubChem BioAssay AID2551 (National Center for Advancing Translational Sciences (NCATS), 2010)
# Amino acid sequences for entries named in this document (tags omitted). A change or cut given only in a name is not applied to a line headed by its entry.
# UniProt P51450: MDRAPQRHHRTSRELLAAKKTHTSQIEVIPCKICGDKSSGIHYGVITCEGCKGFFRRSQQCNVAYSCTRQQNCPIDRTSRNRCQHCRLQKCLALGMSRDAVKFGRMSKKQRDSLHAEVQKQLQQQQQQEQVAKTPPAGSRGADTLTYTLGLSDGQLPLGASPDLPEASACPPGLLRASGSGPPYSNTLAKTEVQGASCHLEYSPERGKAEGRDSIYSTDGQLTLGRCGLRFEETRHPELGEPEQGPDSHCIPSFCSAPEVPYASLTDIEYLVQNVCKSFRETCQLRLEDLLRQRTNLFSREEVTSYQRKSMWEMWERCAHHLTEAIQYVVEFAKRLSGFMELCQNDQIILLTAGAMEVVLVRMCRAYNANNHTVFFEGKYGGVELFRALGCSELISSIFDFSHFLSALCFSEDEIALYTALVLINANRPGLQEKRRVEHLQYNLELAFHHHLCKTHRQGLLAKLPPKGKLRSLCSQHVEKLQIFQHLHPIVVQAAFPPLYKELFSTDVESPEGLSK
# “And” between values parts separate entries of the source, which are not always exact repeats. Equal values may be shown once. The whole screen tested about 310,000 compounds, of which about 17,000 (5.5%) were called active. Inconclusive means that the source gave no clear call. Such entries were picked first, then a sample of the others. Calls follow the shape of the dose curve; as a rule, active = well fitted inhibition curve with a large enough effect; inconclusive = small, poorly fitted or top-dose-only effect, or effect the other way; inactive = no such curve, though single readings can be large or run the other way. A potency beside an inconclusive call is a rough fit, not a confirmed value.
# Target: Nuclear receptor ROR-gamma (Mus musculus) (UniProt P51450)
# Experiment: qHTS for inhibitors of ROR gamma transcriptional activity; also: nearly all actives have a fitted effect of over 60% in size
# Conditions: Drosophila S2 Gal4-RORgamma UAS-luciferase reporter, 20 h; activity change, negative = inhibition: at 53.6 µM (top of the series)
# Outline: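 Drosophila S2 cells stably expressing Gal4-DBD/mouse RORγ fusion under metallothionein promoter plus UAS-luciferase; compound 1 h, then 700 uM CuSO4 induction for 20 h at ambient temperature; inhibition read as reduced luminescence.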
# % is scaled to controls: 0 for no effect and ±100 for the full control effect; potency is read from the fitted curve at half-maximal effect.
Compound,Potency,"activity change, negative = inhibition"
Cc1cc2nnc(SCC(=O)Nc3cccc(S(=O)(=O)N4CCOCC4)c3)n2c2ccccc12,"inconclusive: 14.1 µM [activator, partial curve]",–
COC(=O)CSc1nc(COc2ccccc2)nc2ccccc12,–,inactive: 10.4%
C=CCC(C)(O)c1cccs1 (stereo not drawn),–,inactive: 1.13%
CCOC(=O)c1nn(-c2cc(C(=O)OC)cc(C(=O)OC)c2)cc1O,–,inactive: 7.41%
c1ccc2c(c1)CN1CCCC1=N2,inactive,–
O=S(=O)(c1ccc(N2CCOCC2)c(Cl)c1)N1CCOCC1,"inconclusive: 35.5 µM [inhibitor, single point]",–
Cn1nccc1C(=O)NC1CCCc2c1cnn2-c1ccc(C(C)(C)C)cc1 (stereo not drawn),"inconclusive: 15.8 µM [inhibitor, single point]",–
COC(=O)/C(=C(/F)Sc1cc(C)c(O)c(C)c1)C(F)(F)F,–,inactive: 10.6%
CCN(CC)CC(=O)c1ccc(-c2ccccc2)cc1,"inconclusive: 35.5 µM [inhibitor, single point]",–
Cc1ccc2nc3c(cc2c1)c(NS(=O)(=O)c1ccccc1)nn3CC(C)C,"inconclusive: 0.891 µM [activator, partial curve]",–
CS(=O)(=O)c1ccc(C(=O)OCC(=O)NC(=O)C2CCCCC2)cc1[N+](=O)[O-],active: 11.2 µM,–
CCOC(=O)C1=C(CC)Nc2ccccc2N/C1=N\S(=O)(=O)c1ccc(C(=O)OCC)cc1,"inconclusive: 10 µM [activator, partial curve]",–
CCOC(=O)c1ccc(NC(=O)CN2C(=O)NC3(CCCCCC3)C2=O)cc1,"inconclusive: 11.2 µM [activator, partial curve]",–
C[C@@H](C(=O)NCCc1c[nH]c2ccccc12)[C@@H]1C[C@@]1(C)[C@@H](NC(=O)OCc1ccccc1)c1ccccc1,"inconclusive: 25.1 µM [activator, single point] and inconclusive: 14.1 µM [activator, partial curve]",–
Cc1ccccc1OCCNC(=O)CNC(=O)c1ccccc1O,"inconclusive: 12.6 µM [activator, partial curve]",–
Cc1ccc2cc(CN(CC3CCCO3)C(=S)NCc3ccco3)c(=O)[nH]c2c1C (stereo not drawn),–,inactive: 38.8%
C=CCn1c(-c2cc(OC)c(OC)c(OC)c2)n[nH]c1=S,"inconclusive: 35.5 µM [inhibitor, single point]",–
CS(=O)(=O)N1CCc2cc(S(=O)(=O)N3CCN(Cc4ccc5c(c4)OCO5)CC3)ccc21,"inconclusive: 35.5 µM [activator, single point]",–
CC1CCCN(c2c3c(nc4ccccc24)CCCC3)C1 (stereo not drawn),"inconclusive: 12.6 µM [inhibitor, partial curve, poor fit]",–
COc1ccc(-c2nc(CS(=O)CC(=O)NCCN3CCCCC3C)c(C)o2)cc1OC (stereo not drawn),–,inactive: -6.82%
Clc1ccc(-c2csc(=Nc3cccnc3)n2CCCn2ccnc2)cc1Cl,"inconclusive: 2.51 µM [activator, partial curve]",–
COC(=O)c1sc(NC(=S)NC(=O)c2ccccc2F)nc1C,–,inactive: 20.6%
CCC(=O)Nc1cccc(NC(=S)NC(=O)c2cccs2)c1,"inconclusive: 28.2 µM [inhibitor, single point]",–

Compound,Potency,"activity change, negative = inhibition"
CCOC(=O)C1CCN(C(=O)CCNC(=O)Cn2cnc3ccccc3c2=O)CC1,–,inactive: -32%
O=C(CCl)N1CCN(S(=O)(=O)c2ccc3ccccc3c2)CC1,"inconclusive: 22.4 µM [inhibitor, single point]",–
COc1cc(C(=O)NC(=S)Nc2nccs2)cc(OC)c1OC,active: 3.16 µM,–
O=C(CSc1nnc(Cc2cccs2)n1Cc1ccco1)Nc1cccc(Cl)c1,"inconclusive: 8.91 µM [inhibitor, single point]",–
CC(C)Cn1c(N)c(C(=O)COC(=O)c2ccc(F)cc2)c(=O)n(C)c1=O,"inconclusive: 3.98 µM [activator, partial curve]",–
CN1CCN(CC(=O)N2c3ccccc3C(C)(c3ccccc3)CC2(C)C)CC1 (stereo not drawn),"inconclusive: 14.1 µM [inhibitor, single point]",–
CC(C)C(=O)N1CCN(c2ccc(NC(=O)c3cccs3)cc2)CC1,"inconclusive: 11.2 µM [activator, single point]",–
O=C(NC1CCCc2c1cnn2-c1ccc(F)cc1F)c1cnccn1 (stereo not drawn),"inconclusive: 17.8 µM [activator, partial curve, poor fit]",–
CC1CCC2C(=O)N(c3ccc(S(=O)(=O)c4ccccc4)cc3)C(=O)C2C1 (stereo not drawn),"inconclusive: 15.8 µM [activator, single point]",–
COc1ccc(NC(=O)c2cc3ccccc3cc2OC)cc1,"inconclusive: 4.47 µM [activator, full curve]",–
CCOC(=O)c1sc(NC(=O)CCN2CCN(CC)CC2)c(C(=O)OCC)c1C,"inconclusive: 12.6 µM [inhibitor, single point]",–
O=C(N/N=C/c1ccccc1O)NC12CC3CC(CC(C3)C1)C2,"inconclusive: 20 µM [inhibitor, single point]",–
CC1Cc2ccccc2N1C(=O)CNc1cccc(S(=O)(=O)N2CCCC2)c1 (stereo not drawn),–,inactive: 3.31%
COc1ccc([N+](=O)[O-])cc1NC(=O)CSCc1ccccc1,"inconclusive: 35.5 µM [activator, single point]",–
CCCCC(CC)COC(=O)C(C#N)=C(c1ccccc1)c1ccccc1 (stereo not drawn),"inconclusive: 35.5 µM [activator, single point]",–
O=C(c1ccc(F)cc1)N1CCN(c2ccc(N3CCOCC3)nn2)CC1,–,inactive: 3.44%
CC(C)=CCN1CCN(Cc2cccn2-c2ccccn2)CC1CCO (stereo not drawn),"inconclusive: 0.316 µM [inhibitor, full curve, poor fit]",–
Cc1nn(-c2cc(N3CCCCC3)ccc2N)c(=O)c2ccccc12,–,inactive: 4.63%
CC(C)c1nnc(NC(=O)C2CCN(c3cnccn3)CC2)s1,"inconclusive: 35.5 µM [activator, single point]",–
CC(=O)c1ccc(N2Cc3ccccc3/C2=N\C(=O)Nc2ccccc2)cc1,"inconclusive: 35.5 µM [activator, single point]",–
COCCNC(=O)c1ccc(CS(=O)(=O)c2c(Cl)cccc2Cl)o1,–,inactive: 8.04%
COc1ccc(NC(=O)c2ccc3c(c2)C(=O)N(CC2CCCO2)C3=O)cc1 (stereo not drawn),"inconclusive: 12.6 µM [activator, partial curve]",–
COc1ccccc1N1CCN(C(CNC(=O)C2CCCCC2)c2cccnc2)CC1 (stereo not drawn),"inconclusive: 0.126 µM [activator, full curve, poor fit]",–

Compound,Potency,"activity change, negative = inhibition"
COc1ccc(Cc2nc3ccc(C(=O)NC(C)Cc4ncccc4C)cc3o2)cc1OC (stereo not drawn),"inconclusive: 11.2 µM [activator, partial curve]",–
Cc1nc(N)sc1-c1csc(Nc2ccc(Cl)cn2)n1,"inconclusive: 25.1 µM [inhibitor, single point]",–
O=C1/C(=C/c2cccnc2)Sc2ccccc21,"inconclusive: 17.8 µM [inhibitor, single point]",–
COc1ccc(-c2csc(NCc3ccco3)n2)cc1C,"inconclusive: 1.58 µM [activator, single point]",–
CCS(=O)(=O)N1Cc2ccccc2CC1C(=O)Nc1cccc(C)c1 (stereo not drawn),–,inactive: -17.9%
CN(C)c1cccc2c(S(=O)(=O)Nc3ccccn3)cccc12,–,inactive: 14.3%
CCOc1cc(/C=N/NC(=O)Nc2ccccc2)ccc1O,–,inactive: 31.3%
FC(F)(F)c1ccccc1/C=N/Nc1ccccn1,"inconclusive: 15.8 µM [inhibitor, single point]",–
CC[C@@H](C(=O)[C@@H](C)[C@@H](O)[C@H](C)CCc1ccc(C)c(O)c1C(=O)O)C1O[C@](CC)(C2CC[C@](O)(CC)[C@H](C)O2)C[C@@H]1C (stereo partly drawn),"inconclusive: 31.6 µM [inhibitor, single point]",–
CCC(CC)c1nn2c(N)c(/C=C3\C=Nc4ccccc43)c(=O)nc2s1,–,inactive: -21.9%
CCOc1ccc2[nH]cc(C(=O)NCc3ccc(F)cc3)c(=O)c2c1,"inconclusive: 12.6 µM [activator, partial curve]",–
C=CCSc1nnc(NC(=O)CSc2nc3ccccc3o2)s1,"inconclusive: 10 µM [inhibitor, partial curve, poor fit]",–
Cc1ccc(N=Nc2ccc(O)c3ncccc23)cc1,active: 0.0562 µM,–
O=C1OC(Nc2ccc3c(c2)OCO3)c2ccccc21 (stereo not drawn),"inconclusive: 14.1 µM [inhibitor, partial curve]",–
CCCCC(=O)N(Cc1ccc2c(c1)OCO2)Cc1nc2ccccc2c(=O)[nH]1,active: 11.2 µM,–
Cc1ccc(C(C(=O)NC(C)(C)C)N(CCCN2CCOCC2)C(=O)c2ccc(-c3ccccc3)[nH]2)o1 (stereo not drawn),–,inactive: -7.68%
O=C1c2ccccc2C(=O)N1c1ccc(S(=O)(=O)N2CCCCC2)cc1,"inconclusive: 15.8 µM [activator, partial curve]",–
Cc1nnc2n(Cc3ccccc3)c(=O)c3c4c(sc3n12)COC(C)(C)C4,"inconclusive: 15.8 µM [inhibitor, single point]",–
COc1ccc(Cn2c(C3CC3)nc3ccc(NC(=O)C4CC4)cc3c2=O)cc1,"inconclusive: 10 µM [activator, partial curve]",–
Cc1ccc(-n2nnnc2Sc2ccc(S(=O)(=O)NCCN(C)C)cc2[N+](=O)[O-])cc1,"inconclusive: 15.8 µM [inhibitor, single point]",–
Cc1nc2ccc(-c3nc4ccccc4[nH]3)cc2[nH]1,"inconclusive: 35.5 µM [inhibitor, single point]",–
COCCOC(=O)c1c(NC(=O)CN2CCCc3ccccc32)sc(C(N)=O)c1C,"inconclusive: 3.98 µM [activator, full curve]",–

# Three of the compounds above, as tab-separated lines:
Compound	Potency	activity change, negative = inhibition
COc1ccc(Cn2c(C3CC3)nc3ccc(NC(=O)C4CC4)cc3c2=O)cc1	inconclusive: 10 µM [activator, partial curve]	–
Cc1ccc(-n2nnnc2Sc2ccc(S(=O)(=O)NCCN(C)C)cc2[N+](=O)[O-])cc1	inconclusive: 15.8 µM [inhibitor, single point]	–
Cc1nc2ccc(-c3nc4ccccc4[nH]3)cc2[nH]1	inconclusive: 35.5 µM [inhibitor, single point]	–
